Data on 19 compounds can be found in PubChem BioAssay AID250 (DTP/NCI, 2004).

Molecules are shown by their SMILES. The list shows only some results of the screen, not a fair sample: it is rich in T/C values a quarter to a half above the control, in often repeated tests (any T/C) and in doses without a T/C. Further doses and runs are listed elsewhere. T/C: endpoint of the treated group in % of that of the vehicle group. For survival time, the PubChem record calls one and a half times the control and up active, and a quarter to a half above the control has no call in these data; cut-offs in other NCI protocols can differ. Schedules are NCI's codes, taken here to give the interval after Q, in days (D) or hours (H), and the number of doses after X. Some schedules carry Z or #; the key to these is not given. Some doses were run more than once; the results are listed from low to high. Some T/C values are followed by the survivors on the day toxicity was checked, most often the fifth; where none is given, no animal had died by that day. Square brackets hold non-standard residues; d marks the D form. Peptide text beside a SMILES is read from it. Ac5c = NC1(C(=O)O)CCCC1

The assay concerns BDF1 mice, L1210 leukemia sc. Kind of assay: NCI In Vivo Anticancer Drug Screen. Data for tumor model L1210 Leukemia (subcutaneous) in B6D2F1 (BDF1) mice. The following applies: higher T/C = longer survival. The method in brief: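 Read-out: T/C ratio, i.e. survival or tumor size in treated mice over that in vehicle-treated controls, from mice bearing transplantable tumors.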

With `C[C@H](CN1CC(=O)NC(=O)C1)N1CC(=O)NC(=O)C1`, the T/C is 138 % of control (T/C endpoint: median survival time, dose: 16.0 mg/kg/injection, schedule: Q01DX009 (ip), vehicle: water, evaluated on day 21); 136 % of control (T/C endpoint: median survival time, dose: 16.0 mg/kg/injection, schedule: Q01DX009 (ip), vehicle: water, evaluated on day 30); 135 % of control (T/C endpoint: median survival time, dose: 32.0 mg/kg/injection, schedule: Q01DX009 (ip), vehicle: water); 138 % of control (T/C endpoint: median survival time, dose: 64.0 mg/kg/injection, schedule: Q01DX009 (ip), vehicle: water); 144 % of control (T/C endpoint: median survival time, dose: 128.0 mg/kg/injection, schedule: Q01DX009 (ip), vehicle: water, evaluated on day 21); 125 % of control (T/C endpoint: median survival time, dose: 128.0 mg/kg/injection, schedule: Q01DX009 (ip), vehicle: water, evaluated on day 30). Moreover, the T/C (T/C endpoint: median survival time, dose: 256.0 mg/kg/injection, schedule: Q01DX009 (ip), vehicle: water) is 125 % of control [9 of 10 alive].

Turning to `Nc1nc(N)c2nc(CNc3ccc(C(=O)NC(CCC(=O)O)C(=O)O)cc3)cnc2n1` (centres undefined), the T/C reads like this: (T/C endpoint: median survival time, dose: 0.12 mg/kg/injection, schedule: Q01DX Z (sc), vehicle: other) 140 % of control [8 of 10 alive]; (T/C endpoint: median survival time, dose: 0.18 mg/kg/injection, schedule: Q01DX Z (sc), vehicle: other) 140 % of control; (T/C endpoint: median survival time, dose: 0.26 mg/kg/injection, schedule: Q01DX Z (sc), vehicle: other) 135 % of control.

For `CC(=O)NC1=C(N2CC2)C(=O)C(NC(C)=O)=C(N2CC2)C1=O`, the T/C by setting is: (T/C endpoint: median survival time, dose: 0.65 mg/kg/injection, schedule: Q01DX Z (sc), vehicle: saline) 131 % of control; (T/C endpoint: median survival time, dose: 3.0 mg/kg/injection, schedule: Q01DX Z (sc), vehicle: saline) 136 % of control.

For the compound `CCCCCCCCCCCCCCCC(=O)OCC1OC(n2ccc(N)nc2=O)C(O)C1O` (centres undefined), the T/C was 138 % of control (T/C endpoint: median survival time, dose: 18.75 mg/kg/injection, schedule: Q04DX003 (ip), vehicle: saline); 144 % of control (T/C endpoint: median survival time, dose: 37.5 mg/kg/injection, schedule: Q01DX009 (ip), vehicle: saline); 133 % of control (T/C endpoint: median survival time, dose: 75.0 mg/kg/injection, schedule: Q01DX009 (ip), vehicle: saline); 133 % of control (T/C endpoint: median survival time, dose: 150.0 mg/kg/injection, schedule: Q01DX009 (sc), vehicle: saline); 133 % of control (T/C endpoint: median survival time, dose: 300.0 mg/kg/injection, schedule: Q01DX001 (ip), vehicle: saline); 134 % of control (T/C endpoint: median survival time, dose: 300.0 mg/kg/injection, schedule: Q01DX001 (sc), vehicle: saline). Also, the T/C is, setting by setting: (T/C endpoint: median survival time, dose: 300.0 mg/kg/injection, schedule: Q04DX003 (ip), vehicle: saline) 133 % of control; (T/C endpoint: median survival time, dose: 300.0 mg/kg/injection, schedule: Q04DX003 (sc), vehicle: saline) 144 % of control; (T/C endpoint: median survival time, dose: 600.0 mg/kg/injection, schedule: Q01DX001 (sc), vehicle: saline) 133 % of control.

On to `O=P(N1CCOCC1)(N1CC1)N1CC1`, for which the T/C reads like this: (T/C endpoint: median survival time, dose: 39.0 mg/kg/injection, schedule: Q01DX Z (sc), vehicle: saline) 140 and 145 % of control; (T/C endpoint: median survival time, dose: 65.0 mg/kg/injection, schedule: Q01DX Z (sc), vehicle: saline) 130 % of control.

With `O=C(Nc1ccc(C(=O)Nc2ccc(C3=NCCN3)cc2)cc1)Nc1ccc(C2=NCCN2)cc1`, for the setting “T/C endpoint: median survival time, dose: 300.0 mg/kg/injection, schedule: Q01DX Z (sc), vehicle: methylcellulose (MC)”, the T/C is 145 % of control.

On to `Nc1nc(=S)c2ncn(C3OC(COC(=O)c4ccc(Cl)cc4)C(OC(=O)c4ccc(Cl)cc4)C3OC(=O)c3ccc(Cl)cc3)c2[nH]1` (centres undefined), for which the T/C by setting is: (T/C endpoint: median survival time, dose: 180.0 mg/kg/injection, schedule: Q01DX Z (sc), vehicle: carboxymethylcellulose (CMC)) 144 % of control; (T/C endpoint: median survival time, dose: 300.0 mg/kg/injection, schedule: Q01DX Z (sc), vehicle: carboxymethylcellulose (CMC)) 144 % of control; (T/C endpoint: median survival time, dose: 500.0 mg/kg/injection, schedule: Q01DX Z (sc), vehicle: carboxymethylcellulose (CMC)) 144 % of control.

As to `S=c1nc[nH]c2c1ncn2C1CCCO1` (centres undefined), the T/C is 130 % of control (T/C endpoint: median survival time, dose: 23.0 mg/kg/injection, schedule: Q01DX Z (sc), vehicle: methylcellulose (MC)); 130 % of control (T/C endpoint: median survival time, dose: 39.0 mg/kg/injection, schedule: Q01DX Z (sc), vehicle: methylcellulose (MC)); 130 % of control (T/C endpoint: median survival time, dose: 65.0 mg/kg/injection, schedule: Q01DX Z (sc), vehicle: methylcellulose (MC)).

As to `CN(C)c1ccc(Nc2c3ccccc3nc3ccccc23)cc1`, under “T/C endpoint: median survival time, dose: 720.0 mg/kg/injection, schedule: Q01DX Z (sc), vehicle: saline”, the T/C is 140 % of control.

On to `NC(=O)N(CCCl)N=O`, for which the T/C was 126 % of control (T/C endpoint: median survival time, dose: 3.0 mg/kg/injection, schedule: Q07DX Z (sc), vehicle: saline); 126 % of control (T/C endpoint: median survival time, dose: 23.0 mg/kg/injection, schedule: Q01DX001 (sc), vehicle: saline); 126 % of control (T/C endpoint: median survival time, dose: 39.0 mg/kg/injection, schedule: Q01DX001 (sc), vehicle: saline).

For `N[C@H](C(=O)O)[C@@H]1CC(Cl)=NO1`, the T/C is 135 % of control (T/C endpoint: median survival time, dose: 2.0 mg/kg/injection, schedule: Q01DX009 (sc), vehicle: saline); 144 % of control (T/C endpoint: median survival time, dose: 4.0 mg/kg/injection, schedule: Q01DX009 (sc), vehicle: saline); 137 % of control (T/C endpoint: median survival time, dose: 16.0 mg/kg/injection, schedule: Q01DX009 (sc), vehicle: saline); 135 % of control (T/C endpoint: median survival time, dose: 32.0 mg/kg/injection, schedule: Q01DX009 (sc), vehicle: saline); 138 % of control (T/C endpoint: median survival time, dose: 128.0 mg/kg/injection, schedule: Q01DX009 (sc), vehicle: saline).

Consider `CS(=O)(=O)OCCCCCCCCCOS(C)(=O)=O`, for which the T/C reads like this: (T/C endpoint: median survival time, dose: 130.0 mg/kg/injection, schedule: Q01DX Z (sc), vehicle: methylcellulose (MC)) 140 % of control [9 of 10 alive]; (T/C endpoint: median survival time, dose: 360.0 mg/kg/injection, schedule: Q01DX Z (sc), vehicle: methylcellulose (MC)) 140 % of control; (T/C endpoint: median survival time, dose: 600.0 mg/kg/injection, schedule: Q01DX Z (sc), vehicle: methylcellulose (MC)) 130 % of control [8 of 10 alive].

For `CN(C)CCNc1ccc([N+](=O)[O-])c2sc3ccccc3c(=O)c12`, where the note is “T/C endpoint: median survival time, dose: 108.0 mg/kg/injection, schedule: Q01DX Z (sc), vehicle: carboxymethylcellulose (CMC)”, the T/C was 138 % of control.

In the case of `CCCCC(=O)N(c1ccc(Nc2c3ccccc3nc3cc([N+](=O)[O-])ccc23)cc1)S(C)(=O)=O`, the T/C (T/C endpoint: mean survival time, dose: 12.5 mg/kg/injection, schedule: Q01DX009 (sc), vehicle: saline) is 128 % of control.

As for `O=c1[nH]c(=O)n([C@H]2CCCO2)cc1F`, the T/C (T/C endpoint: median survival time, dose: 108.0 mg/kg/injection, schedule: Q01DX009 (ip), vehicle: water) was 147 % of control; the T/C (T/C endpoint: median survival time, dose: 108.0 mg/kg/injection, schedule: Q01DX009 (sc), vehicle: water) is 135 % of control; the T/C (T/C endpoint: median survival time, dose: 300.0 mg/kg/injection, schedule: Q04DX003 (sc), vehicle: water) is 143 % of control; the T/C (T/C endpoint: median survival time, dose: 500.0 mg/kg/injection, schedule: Q04DX003 (ip), vehicle: water) is 135 % of control.

With `Cc1cccc2c(Nc3ccc(NS(C)(=O)=O)cc3)c3ccccc3nc12`, the T/C is, setting by setting: (T/C endpoint: median survival time, dose: 40.0 mg/kg/injection, schedule: Q01DX009 (ip), vehicle: saline with Tween-80) 125 % of control; (T/C endpoint: median survival time, dose: 80.0 mg/kg/injection, schedule: Q01DX009 (ip), vehicle: saline with Tween-80) 125 % of control.

As to `CCN(O)C(N)=O`, the T/C was 129 % of control (T/C endpoint: median survival time, dose: 375.0 mg/kg/injection, schedule: Q01DX Z (sc), vehicle: methylcellulose (MC)) and 125 % of control (T/C endpoint: median survival time, dose: 500.0 mg/kg/injection, schedule: Q01DX Z (sc), vehicle: methylcellulose (MC)).

For the compound `NCC(=O)NC1(C(=O)O)CCCC1` (H-Gly-[Ac5c]-OH), the T/C runs as follows: (T/C endpoint: median survival time, dose: 432.0 mg/kg/injection, schedule: Q01DX Z (sc), vehicle: water) 142 % of control; (T/C endpoint: median survival time, dose: 720.0 mg/kg/injection, schedule: Q01DX Z (sc), vehicle: water) 136 % of control.

`O=c1cnn(C2OC(CO)C(O)C2O)c(=O)[nH]1` (centres undefined): the T/C was 125 % of control (T/C endpoint: median survival time, dose: 75.0 mg/kg/injection, schedule: Q01DX009 (sc), vehicle: water); 127 % of control (T/C endpoint: median survival time, dose: 250.0 mg/kg/injection, schedule: Q01DX Z (sc), vehicle: other); 133 % of control (T/C endpoint: median survival time, dose: 500.0 mg/kg/injection, schedule: Q01DX Z (sc), vehicle: other); 128 % of control (T/C endpoint: median survival time, dose: 600.0 mg/kg/injection, schedule: Q01DX009 (ip), vehicle: water); 126 % of control (T/C endpoint: median survival time, dose: 600.0 mg/kg/injection, schedule: Q01DX009 (sc), vehicle: water).
